Values quoted from earlier work, collected in patent US11819476B2, “Rapamycin analogs and uses thereof” (Janssen Pharmaceutica NV, priority 2019, dated 2023).
For at least one compound, name, drawing or mass did not settle the structure.

Tested on: human adipocytes
Conditions: therapeutic concentration (0.0 μM); cited from earlier work

SMILES: CO[C@H]1C[C@@H]2CC[C@@H](C)[C@@](O)(O2)C(=O)C(=O)N2CCCC[C@H]2C(=O)O[C@H]([C@H](C)C[C@@H]2CC[C@@H](O)[C@H](OC)C2)CC(=O)[C@H](C)/C=C(\C)[C@@H](O)[C@@H](OC)C(=O)[C@H](C)C[C@H](C)/C=C/C=C/C=C/1C [rapamycin]
- AKT (PKB) Ser473 phosphorylation: reduced
- glucose uptake: reduced glucose uptake
